# Assay results

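GFP signal from normal-ribosome E. coli grown alongside a humanized-ribosome RFP strain, measured on a plate reader after one day.
Percent-style change in GFP activity at 50 µM; values more negative mean stronger inhibition.
Active needs green reporter loss at least twice the red loss with limited overall growth inhibition; inconclusive means no clear call.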

Common to all entries: at 50 µM (top of the series).
Every entry below has the call inconclusive.
These entries are mostly ones the record files as inconclusive; other results of the assay are not listed here.

SMILES | activity change
Cc1ccc(NCCCn2cnc3c(OCc4ccccc4)ncnc32)cc1C | -48.38
CN(Cc1nnc(-c2ccc(F)cc2)o1)c1ccccc1 | -13.62
COc1ccc(-c2csc(N)n2)cc1F | 23.83
CCCc1nc2cc(C)c(Br)c(C)n2c1CC1CCCCC1 | 10.02
CC(CCC(=O)O)C1CC[C@@]2(C)C3C(=O)CC4C(C)(C)C(O)CC[C@]4(C)C3C(=O)C[C@]12C (some centres unmarked) | -14.4
COc1ccc(NC(=O)CCS(=O)(=O)c2ccccc2Cl)cc1S(=O)(=O)Nc1ccc(Cl)cc1 | -14.91
COc1ccc(CNC(=O)Cc2cn(C)c3ccccc23)c(OC)c1 | -28.44
COc1ccc(CN2CCC3CC2c2cc(Cl)ccc23)cc1 (centres unmarked) | -8.268
CCOC(=O)Cc1csc(NC(=O)c2cc3ccccc3o2)n1 | -27.23
CCn1c(COc2cccc(OC)c2)nnc1SCC(=O)Nc1cc(OC)ccc1OC | -30.07
CC1C=Cc2ccccc2N1C(=O)c1ccccc1 (centres unmarked) | -3.812
COCCNc1cc(-c2ccccc2)nc2cc(-c3cccc(F)c3)nn12 | -6.863
C[C@H]1CN([C@@H](C)CO)C(=O)CCCn2nncc2CO[C@@H]1CN(C)Cc1ccccc1C(F)(F)F | 7.399
COc1cc(-c2cc3nc(NCCc4ccncc4)ccn3n2)cc(OC)c1OC | -27.1
CCCCC(=O)N1CCN(c2nc3ccc(Br)cc3s2)CC1 | -32.07
O=C(Cc1ccc(NC(=O)C2CCCN(C(=O)CCc3ccccc3)C2)cc1)Nc1cccc(C(=O)N2CCCC2)c1 (centres unmarked) | -25.28
COc1ccc(-c2csc3ncn(-c4ccccc4OC)c(=O)c23)cc1OC | -23.4
COc1ccc(OC(C)C(=O)Nc2cccc(F)c2)cc1 (centres unmarked) | -17.56
Cc1ccc2sc(N(CCCN(C)C)C(=O)c3ccc(S(=O)(=O)N4CCc5ccccc5C4)cc3)nc2c1C | 0.422
CCOC(=O)CN(C)Cc1cn(C)nc1-c1ccc(Oc2ccccc2)cc1 | 9.037
CC(OC(=O)CCc1nc2ccccc2c(=O)[nH]1)C(=O)c1ccc(Br)cc1 (centres unmarked) | -42.08
COc1ccc(CNC(=O)c2cc3c(s2)CN(Cc2ccccc2)C3)cc1 | -22.42
C=CCn1c(SCC(=O)N2CCCC2=O)nc2sc(CC)cc2c1=O | -13.06
COc1cc2c(cc1OC)CN(c1ccc([N+](=O)[O-])c(C(F)(F)F)c1)CC2 | 5.703
Cc1cc(C)c(OCC(=O)OCC(=O)N2CCc3ccccc3C2)c(C)c1 | 5.736
O=C(Nc1cccc2ccccc12)c1ccc([N+](=O)[O-])o1 | -21.18
COc1ccc(-c2cn(-c3ccc(Cl)cc3)c3[n+]2CCCCC3)cc1 | -0.402
COc1cccc(C(=O)C2CCCN(C/C=C/c3ccccc3OC)C2)c1 (centres unmarked) | -23.65
Cc1ccc(C(=O)Nc2ccc3ncccc3c2)cc1 | -16.48
Cc1ccc(C(=O)Nc2cccc(N(C)S(C)(=O)=O)c2)cc1S(=O)(=O)Nc1ccccc1 | 17.65
CCOc1ccc(N(CC(=O)NC(C(C)C)C(C)C)S(=O)(=O)c2ccc(OC)c(OC)c2)cc1 | -31.47
CCN(CC)CCCN(C(=O)c1ccco1)c1nc(-c2ccc(C)cc2)cs1 | -30.14
Cc1oc(-c2ccc(-c3ccccc3)cc2)nc1CN(C)C1CCOC1 (centres unmarked) | -30.17
COc1ccc(-n2c(COc3cccc(C)c3)n[nH]c2=S)cc1 | -8.041
Cc1ccccc1S(=O)(=O)NC(=O)C1(C)CCN1C(=O)C1(c2ccc(Cl)cc2)CC1 (centres unmarked) | -13.26
CCOC(=O)c1nc(S(C)(=O)=O)ncc1Cl | -0.274
COc1cccc(-n2nnnc2SCC(=O)NCc2ccc3c(c2)OCO3)c1 | -28.09
CC(C)(C)c1ccc(N2C(=O)CSC2c2cccnc2)cc1 (centres unmarked) | -14.87
CSc1ccccc1NC(=O)c1ccccc1N(Cc1ccccc1)S(C)(=O)=O | -6.158
CC(C)Nc1nnc(SCC(=O)Nc2sccc2C#N)s1 | -8.085
CC(=O)Nc1ccc(OCc2nnc(-c3ccccc3)o2)cc1 | -2.819
Cc1ccc(NC(=O)c2ccc(NCCCN3CCC(C)CC3)c([N+](=O)[O-])c2)cc1F | -8.529
Cc1ccccc1OS(=O)(=O)c1cccc([N+](=O)[O-])c1 | -18.07
CN(C)CCCNc1ccc(-c2cc(Nc3cccc(Cl)c3)ncn2)cn1 | -2.985
COc1cccc(NC(=O)C2CCC(CNS(=O)(=O)c3cccs3)CC2)c1 (centres unmarked) | -15.76
NC(=O)c1nsc(C(=O)N(c2ccccc2F)C(C(=O)NCc2ccc(F)cc2)c2ccc(O)cc2)c1N (centres unmarked) | -9.347
COc1ccccc1C(=O)C1CCCN(C(=O)CCC(=O)c2ccccc2)C1 (centres unmarked) | -16.11
Cn1c(CO)cnc1SCC(=O)c1ccc(Br)cc1 | -5.097
CC(CCc1ccccc1)NC(=O)CNC(=O)COc1ccccc1 (centres unmarked) | 11.12
CCOC(=O)Cc1nnc(NC(=O)CSc2nc3ccccc3[nH]2)s1 | -18.07
CC(C)CN(C(=O)c1ccco1)c1nc2ccccc2s1 | -33.6
O=C(COC(=O)[C@@H]1CCCN1S(=O)(=O)c1ccccc1F)c1ccccc1 | -19.12
O=C(C1Cc2ccccc2CN1C(=O)c1ccccc1)N1CCN(c2ccccc2)CC1 (centres unmarked) | -20.02
Cc1onc(-c2ccccc2Cl)c1C(=O)N1CCN(Cc2ccc3c(c2)OCO3)CC1 | -15.67
CC(=O)Nc1cccc(-c2ccnc3c2CC(C(=O)Nc2ccc4c(c2)OCO4)O3)c1 (centres unmarked) | -27.83
CCOC(=O)c1sc(NC(=O)CN2CCN(c3ccccc3)CC2)nc1C | -12.58
Cc1ccc(Cl)cc1N1CCN(S(C)(=O)=O)CC1 | -29.2
O=S(=O)(c1cnc(Cl)c(Cl)c1)N1CCCc2ccccc21 | -11.59
CN(C(=O)CN1C(=O)NC2(CCc3ccccc32)C1=O)C1CCCCC1 (centres unmarked) | 14.29
COc1ccccc1CCNC(=O)c1cccc(NC(=O)CC2SC(N3CCCCC3)=NC2=O)c1 (centres unmarked) | -22.63
COc1ccc(NS(=O)(=O)c2cccc3ccccc23)cc1 | -22.53
COc1ccc(CN(CC(O)COCc2ccccc2)S(=O)(=O)c2ccccc2Br)cc1OC (centres unmarked) | -34.46
COc1ccc(CN2C(=O)NC(C)(c3ccc(C)cc3)C2=O)cc1F (centres unmarked) | -8.327
CN1c2ccccc2-c2nc3ccccc3n2C1c1ccncc1 (centres unmarked) | 64.32
COc1ccc(CNC(=O)CSCc2c(F)cccc2Cl)cc1 | -22.6
COc1ccccc1C1CCN(C(=O)c2cccs2)CC1 | -7.736
O=C(NCc1ccc(Cl)cc1)c1csc(-c2cccnc2)n1 | -26.18
Cc1ccc(-c2nnc(Nc3ccc(CC(N)=O)cc3)c3ccccc23)cc1S(=O)(=O)NCC1CCCO1 (centres unmarked) | -40.27
O=C(O)c1ccc(-c2noc(-c3cccc(Cl)c3)n2)cc1 | -25.49
COCCCNc1ccn2nc(-c3ccccc3)cc2n1 | -1.255
COC(=O)c1cc2ccccc2n1S(=O)(=O)c1ccccc1 | -19.65
CCOC(=O)c1cnc2ccc(OCC)cc2c1NCCCN1CCOCC1 | -8.971
O=C(Nc1ccc(F)c(Cl)c1)C1CC2CCC1C2 (centres unmarked) | 2.173
O=C(c1cc(S(=O)(=O)N2CCOCC2)ccc1Cl)N1CCc2ccccc2C1 | -9.335
Cn1nc(C(=O)Nc2cccc(S(=O)(=O)N3CCCCC3)c2)c2ccccc2c1=O | -25.24
O=C(O)c1ccc(COc2ccc3ccccc3c2)o1 | 3.612
COc1ccccc1CNC(=O)c1cc2sccc2n1C | -21.31
CCOc1ccc(OCc2ccc(C(=O)N3CCCC3)o2)cc1 | -9.215
COc1ccc(CNc2cc([N+](=O)[O-])ccc2OC)cc1 | -7.228
COc1ccc(CC(=O)Nc2nc(-c3cc(OC)ccc3OC)cs2)cc1 | -33.33
O=C(c1ccccc1)c1ccc2nc(-c3ccc(NC(=O)c4ccccc4Br)cc3)[nH]c2c1 | -34.61
COCc1ccc(C(=O)N2CCCC(C(=O)c3ccc(Cl)cc3C)C2)o1 (centres unmarked) | -30.77
COCc1[nH]nc2c1C(c1ccc3c(c1)OCO3)N(c1ccc(OC)cc1)C2=O (centres unmarked) | 25.26
CCOC(=O)c1nc(C)sc1-c1ccnn1S(=O)(=O)c1ccc(Cl)cc1Cl | -40.95
O=C(COC(=O)C1CC2C=CC1C2)NCCc1ccccc1 (centres unmarked) | 7.646
O=C(CSc1nc(C2CC2)nc2ccccc12)Nc1ccccc1N1CCOCC1 | -7.381
CC(C)N1CC2(CC(c3ccccc3C(F)(F)F)=NO2)CN1C(=O)c1ccco1 (centres unmarked) | 9.854
CCc1nn2cc(C(=O)c3cc(Cl)ccc3O)cnc2c1-c1ccc(F)cc1 | -20.15
CC(=O)Nc1cccc(-n2nnc(SCC(=O)c3ccccc3)n2)c1 | -10.02
O=C(CN1CCN(c2ccc(O)cc2)CC1)Nc1cc(S(=O)(=O)N2CCCC2)ccc1Cl | -31.9
CCOc1ccccc1N(CC(=O)Nc1ccccc1F)S(=O)(=O)c1ccccc1 | -23.63

The last 8 entries again:

SMILES	activity change
CCOC(=O)c1nc(C)sc1-c1ccnn1S(=O)(=O)c1ccc(Cl)cc1Cl	-40.95
O=C(COC(=O)C1CC2C=CC1C2)NCCc1ccccc1 (centres unmarked)	7.646
O=C(CSc1nc(C2CC2)nc2ccccc12)Nc1ccccc1N1CCOCC1	-7.381
CC(C)N1CC2(CC(c3ccccc3C(F)(F)F)=NO2)CN1C(=O)c1ccco1 (centres unmarked)	9.854
CCc1nn2cc(C(=O)c3cc(Cl)ccc3O)cnc2c1-c1ccc(F)cc1	-20.15
CC(=O)Nc1cccc(-n2nnc(SCC(=O)c3ccccc3)n2)c1	-10.02
O=C(CN1CCN(c2ccc(O)cc2)CC1)Nc1cc(S(=O)(=O)N2CCCC2)ccc1Cl	-31.9
CCOc1ccccc1N(CC(=O)Nc1ccccc1F)S(=O)(=O)c1ccccc1	-23.63

The results are deposited in PubChem (AID977630; Broad Institute, 2014).